In US11918577B2, “Dipeptidyl peptidase-4 inhibitors for topical eye treatment of retinal neurodegenerative diseases” (FUNDACIÓ HOSPITAL UNIVERSITARI VALL D'HEBRON - INSTITUT DE …, priority 2016, dated 2024):
Entries after “also recorded” stand apart in the source; their conditions may differ.

Assay: Blood glucose concentration and body weight at end of eye drop treatment in db/db mice
Format: in vivo, mouse
Settings: eye drops

Row | Compound | blood glucose concentration at the end of treatment vs vehicle | body weight at the end of treatment vs vehicle
1 | N#C[C@@H]1C[C@@H]2C[C@@H]2N1C(=O)[C@@H](N)C12CC3CC(CC(O)(C3)C1)C2 [Saxagliptin, (1S,3S,5S)-2-[(2S)-2-amino-2-(3-hydroxy-1-adamantyl)acetyl]-2-azabicyclo[3.1.0]hexane-3-carbonitrile] | similar; also recorded: without any change in blood glucose levels | similar
2 | N[C@@H](CC(=O)N1CCn2c(nnc2C(F)(F)F)C1)Cc1cc(F)c(F)cc1F [Sitagliptin, (R)-4-oxo-4-[3-(trifluoromethyl)-5,6-dihydro[1,2,4]triazolo[4,3-a]pyrazin-7(8H)-yl]-1-(2,4,5-trifluorophenyl)butan-2-amine] | similar; also recorded: without any change in blood glucose levels | similar
